Several values for one entry are separate records, joined by “and”; a condition that tells them apart may be missing. Equal values may be shown once. The list shows a part of the results. Further columns of the screen follow, without active or inactive calls. Compounds called inactive in the main read-out are mostly missing here. Potencies come from curve fits of mixed quality, noted in brackets.
Experiment: qHTS Assay for Modulators of Lamin A Splicing
Settings: HeLa LMNA splicing GFP/RFP minigene ratio, 48 h
How it was run: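 Read-out is the ratio of GFP to DsRed2 object intensity, acquired by 488 nm laser-scanning cytometry on HeLa lamin A-EGFP minigene reporter cells. Compound incubation 48 hrs at 37 °C in Opti-MEM with 2% FBS; DMSO 0.5% final.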

[1] = measured here: RFP viability control channel
[2] = measured here: GFP splicing reporter channel

Structure (SMILES)	AC50 [1]	AC50 [2]
CC(C)c1cc(NC(=O)c2ccccc2)cc(C(C)C)c1O	17.8 µM [rising, single point]	–
Cc1cc(N2CCCCC2)n2nc(C)c(-c3ccccc3)c2n1	35.5 µM [rising, single point]	35.5 µM [rising, single point]
COc1ccc(C)cc1NC(=O)NC(C)c1ccncc1 (stereo not drawn)	2 µM [falling, partial curve, poor fit]	–
O=C1ON=C(c2ccccc2)/C1=C/c1ccc(-c2ccccc2[N+](=O)[O-])o1	14.1 µM [rising, partial curve, poor fit]	–
Brc1ccc(-c2nnc3n2C2(CCCC2)Cc2ccccc2-3)o1	35.5 µM [rising, single point]	35.5 µM [rising, single point]
COc1ccc(OCc2nc3ccc(S(=O)(=O)Nc4ccccc4Cl)cc3[nH]2)cc1	11.2 µM [rising, partial curve]	–
O=C1CN(C(=O)CSc2nc(-c3ccccc3)cs2)c2ccccc2N1	12.6 µM [rising, partial curve]	7.08 µM [rising, partial curve]
COc1ccc(CCNC(=O)c2c(O)c3cccc4c3n(c2=O)CC4)cc1OC	22.4 µM [rising, single point]	11.2 µM [rising, single point]
O=C(OCc1nnc(-c2ccccc2)o1)c1cc([N+](=O)[O-])ccc1Cl	12.6 µM [rising, partial curve, poor fit]	–
O=C(N/C=N/OCc1cccc(C(F)(F)F)c1)N1OC[C@@H]2COc3ccc4ccccc4c3[C@@H]21	14.1 µM [rising, single point]	–
Cc1cccc(C)c1NC(=O)C(C)c1ccc(-c2ccccc2)c(F)c1 (stereo not drawn)	25.1 µM [rising, single point]	11.2 µM [rising, single point]
COc1cc2c(=O)n(CCCN3CCOCC3)c(=S)[nH]c2c(OC)c1OC	35.5 µM [rising, partial curve, poor fit]	–
Cc1c(C(=O)Nc2ccc(Cl)cc2)c2ccccn2c1CCc1ccncc1	15.8 µM [rising, single point]	–
Cc1c(C(=O)OCC2CCCO2)[nH]c2c1C(=O)CC(c1ccco1)C2 (stereo not drawn)	7.94 µM [falling, partial curve]	7.94 µM [falling, partial curve]
Cc1c(NC(=O)c2cc(-c3cccs3)on2)c(=O)n(-c2ccccc2)n1C	–	14.1 µM [rising, single point]
Cc1ccc2[nH]c(-c3ccccc3)cc(=O)c2c1	3.16 µM [rising, full curve]	3.98 µM [rising, full curve]
CCOCCCNC(=O)Cn1cnc2sc(C)c(S(=O)(=O)N3CCN(c4ncccn4)CC3)c2c1=O	–	1.26 µM [rising, single point]

Structure (SMILES)	AC50 [1]	AC50 [2]
CCCCOC(=O)c1ccc(O)cc1	5.62 µM [rising, single point] and 35.5 µM [falling, partial curve, poor fit]	11.2 µM [falling, single point] and 89.1 nM [falling, full curve, poor fit]
COC(=O)c1c(C)oc2ccc(N(C(=O)c3ccncc3)S(=O)(=O)c3ccc4ccccc4c3)cc12	5.62 µM [rising, single point]	–
CNCCCCOc1ccccc1Cc1ccccc1	0.00355 µM [falling, full curve, poor fit]	0.00398 µM [falling, full curve, poor fit]
CCn1c(SCc2ccc(F)cc2Cl)nc(=O)c2c(C(=O)OC)cc(C3CC3)nc21	35.5 µM [falling, single point]	–
O=C(O)Cc1ccc(O)c(O)c1	3.55 µM [falling, single point]	6.31 µM [falling, partial curve, poor fit]
CCOC(=O)C(=CNc1ccc2c(c1)nnn2-c1ccc(Cl)cc1)C(=O)OCC	–	12.6 µM [rising, partial curve, poor fit]
COc1ccccc1CNc1nc2ccccc2n1CCN1CCCCC1	35.5 µM [rising, single point]	14.1 µM [rising, single point]
COc1ccc(N2CCn3c2nc2c3c(=O)n(CCCc3ccccc3)c(=O)n2C)c(OC)c1	3.98 µM [rising, partial curve]	2.24 µM [rising, full curve]
Cc1ccc(-c2cn3c(n2)sc2cc(C(=O)NCc4cccs4)ccc23)c(C)c1	–	8.91 µM [rising, partial curve]
CCC(O)c1ccccc1 (stereo not drawn)	0.398 µM [falling, full curve, poor fit]	20 µM [falling, partial curve, poor fit]
COc1ccc(Cn2ccc3nc(C)c(C(=O)N4CCN(c5ccccc5OC)CC4)cc3c2=O)cc1	0.0708 µM [falling, full curve]	0.0631 µM [falling, full curve]
COc1ccc(-c2cc(C)nc3c(-c4ccccc4)cnn23)cc1	–	0.447 µM [rising, full curve, poor fit]
COc1cc2c(cc1NC(=O)Nc1ccc(F)cc1)oc1ccccc12	6.31 µM [rising, partial curve]	–
COC(=O)C1CCN(c2cc(Cl)nc(N)n2)CC1	5.01 µM [falling, partial curve]	–
Cc1c(C(=O)N2CCCC2)sc(NC(=O)c2cccc(Cl)c2)c1C#N	31.6 µM [rising, single point]	–
CC(=O)c1cccc(NC(=O)N2C3CCC2CC(NC(=O)C2CC2)C3)c1 (stereo not drawn)	–	0.141 µM [rising, full curve]
CCCc1nc2c(C)cc(-c3nc4ccccc4n3C)cc2n1Cc1ccc(-c2ccccc2C(=O)O)cc1	0.000794 µM [rising, full curve, poor fit]	–

Looked up above:
Entry of CNCCCCOc1ccccc1Cc1ccccc1 under AC50 [1]: 0.00355 µM [falling, full curve, poor fit]
Entry of O=C(O)Cc1ccc(O)c(O)c1 under AC50 [1]: 3.55 µM [falling, single point]

From PubChem BioAssay AID1487 (National Center for Advancing Translational Sciences (NCATS), 2009)
